Test results reported in US20110301095A1.
Results are given in words; binding and its absence hold for the method and conditions named. Some entries that bind do so weakly or less than the wild type.

Sequences of proteins named here, by UniProt entry; tags and fusion partners are left off.
UniProt Q61221: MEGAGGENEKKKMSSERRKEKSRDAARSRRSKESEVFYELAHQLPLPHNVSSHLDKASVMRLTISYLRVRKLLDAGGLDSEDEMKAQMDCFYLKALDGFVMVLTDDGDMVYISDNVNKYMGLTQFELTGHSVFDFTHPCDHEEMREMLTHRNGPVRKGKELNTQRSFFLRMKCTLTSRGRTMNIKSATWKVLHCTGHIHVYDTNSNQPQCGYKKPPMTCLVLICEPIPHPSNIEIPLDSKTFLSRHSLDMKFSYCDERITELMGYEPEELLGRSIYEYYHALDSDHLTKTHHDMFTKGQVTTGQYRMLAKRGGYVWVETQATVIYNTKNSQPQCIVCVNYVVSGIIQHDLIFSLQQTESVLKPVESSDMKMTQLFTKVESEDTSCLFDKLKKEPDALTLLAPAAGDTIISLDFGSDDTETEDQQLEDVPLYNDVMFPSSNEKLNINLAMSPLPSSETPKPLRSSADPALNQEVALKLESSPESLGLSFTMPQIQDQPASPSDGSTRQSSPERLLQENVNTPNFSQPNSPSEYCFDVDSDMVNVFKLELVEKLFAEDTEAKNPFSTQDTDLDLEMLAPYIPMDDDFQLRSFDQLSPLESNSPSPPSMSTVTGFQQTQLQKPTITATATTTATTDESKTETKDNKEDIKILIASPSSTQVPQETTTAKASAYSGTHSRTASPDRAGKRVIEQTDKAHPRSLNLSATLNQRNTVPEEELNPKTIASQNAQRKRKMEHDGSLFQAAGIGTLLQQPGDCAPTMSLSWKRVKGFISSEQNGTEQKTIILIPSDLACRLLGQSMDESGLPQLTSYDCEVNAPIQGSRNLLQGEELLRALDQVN

Target: endogenous HIF-1α of TRAMP-C cells (mouse) (UniProt Q61221)
Experiment: immunoprecipitation of endogenous HIF-1α from TRAMP-C cells under hypoxia, immunoblot (FIG. 3F)

- binding: binds
B1: endogenous FoxA2 of TRAMP-C cells (protein, mouse, UniProt P35583 1-459, looked up)
chain: MLGAVKMEGHEPSDWSSYYAEPEGYSSVSNMNAGLGMNGMNTYMSMSAAAMGGGSGNMSAGSMNMSSYVGAGMSPSLAGMSPGAGAMAGMSGSAGAAGVAGMGPHLSPSLSPLGGQAAGAMGGLAPYANMNSMSPMYGQAGLSRARDPKTYRRSYTHAKPPYSYISLITMAIQQSPNKMLTLSEIYQWIMDLFPFYRQNQQRWQNSIRHSLSFNDCFLKVPRSPDKPGKGSFWTLHPDSGNMFENGCYLRRQKRFKCEKQLALKEAAGAASSGGKKTAPGSQASQAQLGEAAGSASETPAGTESPHSSASPCQEHKRGGLSELKGAPASALSPPEPAPSPGQQQQAAAHLLGPPHHPGLPPEAHLKPEHHYAFNHPFSINNLMSSEQQHHHSHHHHQPHKMDLKAYEQVMHYPGGYGSPMPGSLAMGPVTNKAGLDASPLAADTSYYQGVYSRPIMNSS
